Assay results as given in paper doi:10.1101/2020.12.31.424961.
Read-outs that look alike come from different tables or passages of the source. No constants are given. Whether binding was seen depends on the method and setting. In cells and extracts the contact can be indirect. Some binding calls cover weakened binding; strength is not graded here.

Experiments:
Experiment in all cases: pull-down
[1] = target: HCoV-229E N protein, SFB-tagged (HCoV-229E) (UniProt P15130)
[2] = target: HCoV-HKU1 N protein, SFB-tagged (HCoV-HKU1) (UniProt Q5MQC6)
[3] = target: HCoV-NL63 N protein, SFB-tagged (HCoV-NL63) (UniProt Q6Q1R8)
[4] = target: SARS-CoV-1 NSP1, SFB-tagged (SARS-CoV-1) (UniProt P0C6X7)
[5] = target: SARS-CoV-2 ORF3a, SFB-tagged (SARS-CoV-2) (UniProt P0DTC3)
[6] = target: HCoV-OC43 N protein, SFB-tagged (HCoV-OC43) (UniProt P33469)
[7] = target: HCoV-229E N protein, SFB-tagged (HCoV-229E) (UniProt P15130); remark: listed apart in the source
[8] = target: HCoV-HKU1 N protein, SFB-tagged (HCoV-HKU1) (UniProt Q5MQC6); remark: listed apart in the source
[9] = target: HCoV-NL63 N protein, SFB-tagged (HCoV-NL63) (UniProt Q6Q1R8); remark: listed apart in the source

“Ras-GTPase-activating protein-binding protein 1 (from UniProt Q13283 1-466)” was tested, and the binding [1] was “binds”, the binding [2] was “binds” and the binding [3] was “binds”.

B1: PYCR2 (protein, UniProt Q96C36 1-320)
chain: MSVGFIGAGQLAYALARGFTAAGILSAHKIIASSPEMNLPTVSALRKMGVNLTRSNKETVKHSDVLFLAVKPHIIPFILDEIGADVQARHIVVSCAAGVTISSVEKKLMAFQPAPKVIRCMTNTPVVVQEGATVYATGTHALVEDGQLLEQLMSSVGFCTEVEEDLIDAVTGLSGSGPAYAFMALDALADGGVKMGLPRRLAIQLGAQALLGAAKMLLDSEQHPCQLKDNVCSPGGATIHALHFLESGGFRSLLINAVEASCIRTRELQSMADQEKISPAALKKTLLDRVKLESPTVSTLTPSSPGKLLTRSLALGGKKD
With B1 the binding [4] was “binds”.

B2: CLCC1 (protein, UniProt Q96S66 19-551)
chain: HDDDWIDPTDMLNYDAASGTMRKSQAKYGISGEKDVSPDLSCADEISECYHKLDSLTYKIDECEKKKREDYESQSNPVFRRYLNKILIEAGKLGLPDENKGDMHYDAEIILKRETLLEIQKFLNGEDWKPGALDDALSDILINFKFHDFETWKWRFEDSFGVDPYNVLMVLLCLLCIVVLVATELWTYVRWYTQLRRVLIISFLFSLGWNWMYLYKLAFAQHQAEVAKMEPLNNVCAKKMDWTGSIWEWFRSSWTYKDDPCQKYYELLLVNPIWLVPPTKALAVTFTTFVTEPLKHIGKGTGEFIKALMKEIPALLHLPVLIIMALAILSFCYGAGKSVHVLRHIGGPESEPPQALRPRDRRRQEEIDYRPDGGAGDADFHYRGQMGPTEQGPYAKTYEGRREILRERDVDLRFQTGNKSPEVLRAFDVPDAEAREHPTVVPSHKSPVLDTKPKETGGILGEGTPKESSTESSQSAKPVSGQDTSGNTEGSPAAEKAQLKSEAAGSPDQGSTYSPARGVAGPRGQDPVSSPCG
In the case of B2, the binding [5] is reported as “binds”.

B3: Ras-GTPase-activating protein-binding protein 2 (protein, UniProt Q9UN86 1-482)
chain: MVMEKPSPLLVGREFVRQYYTLLNKAPEYLHRFYGRNSSYVHGGVDASGKPQEAVYGQNDIHHKVLSLNFSECHTKIRHVDAHATLSDGVVVQVMGLLSNSGQPERKFMQTFVLAPEGSVPNKFYVHNDMFRYEDEVFGDSEPELDEESEDEVEEEQEERQPSPEPVQENANSGYYEAHPVTNGIEEPLEESSHEPEPEPESETKTEELKPQVEEKNLEELEEKSTTPPPAEPVSLPQEPPKAFSWASVTSKNLPPSGTVSSSGIPPHVKAPVSQPRVEAKPEVQSQPPRVREQRPRERPGFPPRGPRPGRGDMEQNDSDNRRIIRYPDSHQLFVGNLPHDIDENELKEFFMSFGNVVELRINTKGVGGKLPNFGFVVFDDSEPVQRILIAKPIMFRGEVRLNVEEKKTRAARERETRGGGDDRRDIRRNDRGPGGPRGIVGGGMMRDRDGRGPPPRGGMAQKLGSGRGTGQMEGRFTGQRR
For B3, the binding [6] was “binds”, the binding [7] was “binds” and the binding [8] was “binds”. For the same molecule, the binding [9] was “binds”.

B4: PYCR1 (protein, UniProt P32322 1-319)
chain: MSVGFIGAGQLAFALAKGFTAAGVLAAHKIMASSPDMDLATVSALRKMGVKLTPHNKETVQHSDVLFLAVKPHIIPFILDEIGADIEDRHIVVSCAAGVTISSIEKKLSAFRPAPRVIRCMTNTPVVVREGATVYATGTHAQVEDGRLMEQLLSSVGFCTEVEEDLIDAVTGLSGSGPAYAFTALDALADGGVKMGLPRRLAVRLGAQALLGAAKMLLHSEQHPGQLKDNVSSPGGATIHALHVLESGGFRSLLINAVEASCIRTRELQSMADQEQVSPAAIKKTILDKVKLDSPAGTALSPSGHTKLLPRSLAPAGKD
For B4, the binding [4] was “binds”.
